{"source": "patent US20210086176A1", "about": "“Analyte Detection method” (The Board of Trustees of the Leland Stanford Junior …, priority 2017, published 2021)", "origin": "cited, not measured here", "conditions": "in vivo; cited from earlier work"}
{"molecule": "CN1CC[C@]23c4c5ccc(O)c4O[C@H]2[C@@H](O)C=C[C@H]3[C@H]1C5", "note": "[morphine]", "values": [{"measurement": "minimally effective plasma analgesic concentration (MEAC)", "value": 8, "unit": "ng/mL"}]}
